Measured data: PubChem BioAssay AID1259405 (NCATS, 2018)
Here is one part, drawn at random, of about 50,000 reagents. About 4,000 of them (8%) count as active. 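Mouse siRNA library applied to hamster cells; one well for each siRNA.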 A number with no mark means an inactive call. The numbers tell different reagents against one gene apart. Further read-outs or replicates are left out here. Reagent sequences are not shown.

- Screen: 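Mouse-designed siRNAs used to find CHO productivity engineering targets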 (primary screen)
- Cells: Chinese hamster CHO-K1 ovary cells with stable secreted eGFP expression
- Reagents: single siRNA against mouse genes, 0.8 pmol siRNA per well (2 µl of 400 nM stock)
- Time to read-out: 3 days
- Measured: 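Percent of the per-plate non-targeting control median for intracellular GFP per well by laser scanning cytometry and for cell viability by ATP luminescence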
- Scale: GFP, % of control: higher = more GFP per well, higher productivity
- Rule for the call: 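a knock-down is called active if GFP reaches 120% or more of non-targeting control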

GFP, % of control, by target gene and reagent
Fbxo43 (GeneID 78803): #1 64.8; #2 94; #3 93.7
Zfp598 (GeneID 213753): #1 45.4; #2 53.2; #3 65
Irf2bp1 (GeneID 272359): #1 51.2; #2 89; #3 85.7
2810025M15Rik (GeneID 69953): #1 58.9; #2 94.2; #3 73.7
Pkdcc (GeneID 106522): #1 124 (active); #2 50.6; #3 27.7
Kcnh1 (GeneID 16510): #1 75.2; #2 24.6; #3 79.1
2310030G06Rik (GeneID 66952): #1 56.4; #2 86.2; #3 80.1
Clstn2 (GeneID 64085): #1 74.6; #2 124 (active); #3 85.2
Cdk19 (GeneID 78334): #1 71.2
Lgals1 (GeneID 16852): #1 78.4; #2 77.1; #3 92
Rad17 (GeneID 19356): #1 57.6; #2 81.5; #3 79.7
Lin54 (GeneID 231506): #1 58.9; #2 85.1; #3 82.3
Lrrc57 (GeneID 66606): #1 76.5; #2 96.2; #3 73.8
Crisp3 (GeneID 11572): #1 73.2; #2 48.4; #3 74.3
Fzd8 (GeneID 14370): #1 53.1; #2 126 (active)
Or51a5 (GeneID 259115): #1 131 (active); #2 84.2; #3 79.9
Or8k33 (GeneID 258404): #1 89.7; #2 76.7; #3 50.2
Ccnc (GeneID 51813): #1 119; #2 124 (active); #3 81.9
Med21 (GeneID 108098): #1 93.3; #2 87.7; #3 60.2
Lypd8l (GeneID 78354): #1 97.4; #2 98.2; #3 72.6
Atp5pd (GeneID 71679): #1 54.4; #2 185 (active); #3 78.5
Pou3f4 (GeneID 18994): #1 118; #2 72.1; #3 88.1
Trim16 (GeneID 94092): #1 113; #2 84; #3 121 (active)
Zfp942 (GeneID 73233): #1 52.6; #2 97.9; #3 76.8
Vmn1r23 (GeneID 171197): #1 72.3; #2 81.8; #3 110
Pkd2l2 (GeneID 53871): #1 165 (active); #2 79.5; #3 84
Crabp2 (GeneID 12904): #1 86.5; #2 69.6; #3 99.9
Cntnap5b (GeneID 241175): #1 93.6; #2 74.8; #3 49.3
Sema6b (GeneID 20359): #1 108; #2 57.3; #3 78.9

Reagents above called active:
GFP, % of control, by target gene and reagent
Pkdcc (GeneID 106522): #1 124 (active)
Clstn2 (GeneID 64085): #2 124 (active)
Fzd8 (GeneID 14370): #2 126 (active)
Or51a5 (GeneID 259115): #1 131 (active)
Ccnc (GeneID 51813): #2 124 (active)
Atp5pd (GeneID 71679): #2 185 (active)
Trim16 (GeneID 94092): #3 121 (active)
Pkd2l2 (GeneID 53871): #1 165 (active)
